Experimental data taken from article PMC11792487.

Protein sequences, listed by entry. Tags and fused reporters are not part of them.
UniProt Q8NL22: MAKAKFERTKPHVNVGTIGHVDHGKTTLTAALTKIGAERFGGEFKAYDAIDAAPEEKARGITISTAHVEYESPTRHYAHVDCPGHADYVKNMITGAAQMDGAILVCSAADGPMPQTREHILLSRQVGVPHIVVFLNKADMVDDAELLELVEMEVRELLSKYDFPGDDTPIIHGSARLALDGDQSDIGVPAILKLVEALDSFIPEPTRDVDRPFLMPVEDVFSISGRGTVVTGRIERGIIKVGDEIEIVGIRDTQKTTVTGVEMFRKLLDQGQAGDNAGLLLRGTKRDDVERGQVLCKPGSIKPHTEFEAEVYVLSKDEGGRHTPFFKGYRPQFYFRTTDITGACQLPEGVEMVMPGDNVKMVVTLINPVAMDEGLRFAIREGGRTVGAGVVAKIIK

Target: GST-OMPXan (Xanthomonas-specific outer membrane protein XAC1347 fused with GST) (Xanthomonas citri subsp. citri)
Test: affinity purification with mass spectrometry; only the target purified

## elongation factor Tu (XAC0957 and XAC0970), endogenous in Xcc total proteins (from UniProt Q8NL22 1-396)
  binding: binds

B1: phosphoglucosamine mutase (XAC2714), endogenous in Xcc total proteins (enzyme, UniProt Q8PJ31 1-449)
chain: MSARKYFGTDGIRGRVGQGVISADFVLRLGNALGRVLTQGRSKRPLVLIGKDTRISGYMFEAALEAGLVAAGADVQLIGPMPTPAIAFLTSTLRADAGVVISASHNPHYDNGIKFFSAEGEKLDDATEAAIEAALDEPFHTVESERLGKAIRTRDAIGRYIEFCKASVARGFTLHGLKMVLDCAHGATYHIAPMLFRELGAEVVVIGAAPDGLNINAGVGSTHIDNLAAKVRECGAHLGIAFDGDGDRVLMADDQGNPVDGDDLLYVLARSWQASGRLTGTVVGTLMTNYGLEQALAALHIPFQRAKVGDRYVHQALVEGGGTLGGETSGHLLCLDRASTGDGIVSALQVLEALGRDRQSLRDALTSLSKVPQKTVNVRLDGGAAKAIVEAANVQQALQQAQAAVRGRGRAFLRPSGTEPVVRVTVEADDAGLMQDTLDRLSGAVRDAA
  binding: binds

B2: membrane periplasmic TolB (XAC3142), endogenous in Xcc total proteins (protein, UniProt Q8PHV7 23-439)
chain: QQQGLTIDIVGGSASATPIAVIPMPYQGSGTAPQTDVSAVVGADLDRSGQFRTLPAAQIVEKPTRGTEVQFQTWRTLKQNYIVVGRVMDAGEGAYRVEYELFDVAKGERMLGLAMTARANAMRDVSHQMADAIYEKITGVRGAFWTRIAYVTASGKGGAMRYALMVADSDGYNPQTIVRSAEPLLSPNWSPDGKKLAYVSFERGNSSIYLQDIATGARELVSSFRGINGAPSFSPDGRRLALALSRSGNPEIYVMDLGSKQLTQLTNHFGIDTEPTWAPDGGSIYFTSDRGGRPQIYQVAASGGSANRVTFQGNYNATASVSFDGKKIAVAQGSGNTYRIAMMDRSLGSPSWSTLSPGSLDESPSFAPNASMVLYAAREGGRGVLYAVSSDARVRQRLVLADGDVREPAWGPYRTAH
  binding: binds

No constants are given. Whether binding was seen depends on the method and setting. In cells and extracts the contact can be indirect. A yes stands for co-enrichment or nearness to the bait. Other partners may have been found. Tags and fused reporters may be left off the sequences shown.
